Reference: publication PMC10124047
These are yes or no findings as the source states them, for the method shown. In cells and extracts the contact can be indirect. Some binding calls cover weakened binding; strength is not graded here.

Sequences of proteins named here, by UniProt entry; tags and fusion partners are left off.
UniProt P06536: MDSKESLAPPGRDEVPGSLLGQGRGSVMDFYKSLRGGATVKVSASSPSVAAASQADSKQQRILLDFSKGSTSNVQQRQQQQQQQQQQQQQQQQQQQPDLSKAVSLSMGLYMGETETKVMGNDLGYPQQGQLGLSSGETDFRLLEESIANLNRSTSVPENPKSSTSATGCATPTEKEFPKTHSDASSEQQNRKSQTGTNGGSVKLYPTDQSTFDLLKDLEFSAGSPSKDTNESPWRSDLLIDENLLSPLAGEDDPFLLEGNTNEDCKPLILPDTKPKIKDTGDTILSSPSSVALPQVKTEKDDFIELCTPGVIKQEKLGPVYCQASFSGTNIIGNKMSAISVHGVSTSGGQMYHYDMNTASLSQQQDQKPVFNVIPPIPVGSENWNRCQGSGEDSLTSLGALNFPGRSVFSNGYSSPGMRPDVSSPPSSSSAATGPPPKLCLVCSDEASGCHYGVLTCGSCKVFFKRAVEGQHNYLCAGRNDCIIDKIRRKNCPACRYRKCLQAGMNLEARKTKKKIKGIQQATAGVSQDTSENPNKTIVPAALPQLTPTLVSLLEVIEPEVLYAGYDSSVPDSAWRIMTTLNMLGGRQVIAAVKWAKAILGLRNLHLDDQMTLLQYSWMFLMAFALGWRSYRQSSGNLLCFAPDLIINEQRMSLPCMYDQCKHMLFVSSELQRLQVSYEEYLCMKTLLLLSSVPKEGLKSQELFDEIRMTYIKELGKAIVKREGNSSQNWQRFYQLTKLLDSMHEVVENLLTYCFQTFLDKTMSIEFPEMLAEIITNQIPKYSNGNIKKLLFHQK
UniProt Q62986: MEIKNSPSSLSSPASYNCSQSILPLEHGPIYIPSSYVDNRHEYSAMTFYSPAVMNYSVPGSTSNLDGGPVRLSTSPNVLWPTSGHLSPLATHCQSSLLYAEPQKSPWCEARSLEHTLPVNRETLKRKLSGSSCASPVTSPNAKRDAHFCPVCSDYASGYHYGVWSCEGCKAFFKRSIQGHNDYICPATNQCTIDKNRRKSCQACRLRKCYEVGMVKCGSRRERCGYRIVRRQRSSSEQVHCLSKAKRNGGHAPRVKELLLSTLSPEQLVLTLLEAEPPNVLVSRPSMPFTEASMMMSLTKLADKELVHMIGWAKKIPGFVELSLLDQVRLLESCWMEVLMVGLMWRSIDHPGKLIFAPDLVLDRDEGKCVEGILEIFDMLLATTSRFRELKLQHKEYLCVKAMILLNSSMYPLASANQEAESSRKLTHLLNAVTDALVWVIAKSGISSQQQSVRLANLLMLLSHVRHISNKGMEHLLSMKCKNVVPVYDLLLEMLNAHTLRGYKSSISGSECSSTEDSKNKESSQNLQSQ

Molecular target: glucocorticoid receptor (rat (endogenous in primary rat BMMs)) (UniProt P06536)
Assay: co-IP; lysate of rat BMMs/osteoclasts, with or without 500 nM dexamethasone; precipitated with GR antibody or mock IgG overnight at 4 °C, protein G magnetic beads, washed with lysis buffer, detected by Western blotting

binding: binds
Substance: estrogen receptor β (from UniProt Q62986 1-530)
